According to patent publication US6863888:
No constants are given. Whether binding was seen depends on the method and setting. For some assays here: In cells and extracts the contact can be indirect. Some binding calls cover weakened binding; strength is not graded here.

Amino acid sequences for entries named in this document (tags omitted). A change or cut given only in a name is not applied to a line headed by its entry.
UniProt P05412: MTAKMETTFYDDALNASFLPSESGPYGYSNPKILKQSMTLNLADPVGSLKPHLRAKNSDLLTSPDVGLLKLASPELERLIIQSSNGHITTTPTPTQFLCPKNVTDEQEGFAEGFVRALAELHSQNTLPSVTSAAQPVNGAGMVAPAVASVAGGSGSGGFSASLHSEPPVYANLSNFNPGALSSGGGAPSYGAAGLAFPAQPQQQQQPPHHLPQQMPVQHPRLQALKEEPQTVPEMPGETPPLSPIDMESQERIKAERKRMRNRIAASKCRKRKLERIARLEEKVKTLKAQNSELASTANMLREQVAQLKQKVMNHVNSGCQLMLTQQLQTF

Experiments:
[1] = biological target: GSTcJun(wt), glutathione-S-transferase fused to c-Jun AA 1-223 (human) [GST: P08515]; assay: refers to Example 6, GSTcJun pull-down and in-gel kinase assay
[2] = biological target: GSTcJun(wt), glutathione-S-transferase fused to c-Jun AA 1-223 (human) [GST: P08515]; assay: GST-cJun(1-223)-GSH agarose pull-down from Jurkat whole cell extract, in-gel kinase assay
[3] = biological target: GSTcJun(wt), glutathione-S-transferase fused to c-Jun AA 1-223 (human) [GST: P08515]; assay: GST-cJun(1-223)-GSH agarose beads with Jurkat whole cell extract, solid-state kinase assay
[4] = biological target: GSTcJun(wt), glutathione-S-transferase fused to c-Jun AA 1-223 (human) [GST: P08515]; assay: solid-phase kinase assay, FR3T3 nuclear and cytosolic extracts on GSTcJun(wt)-GSH-agarose beads
[5] = biological target: GSTcJun(wt), glutathione-S-transferase fused to c-Jun AA 1-223 (human) [GST: P08515]; assay: GST fusion proteins on GSH-agarose, cell extract; solid-phase kinase assay and eluted-kinase assay
[6] = biological target: GSTcJun(wt), glutathione-S-transferase fused to c-Jun AA 1-223 (human) [GST: P08515]; assay: GSTcJun-bound protein fraction of TPA-stimulated Jurkat extract, SDS-PAGE, renaturation and kinase assay
[7] = biological target: GSTcJun(Ch), GST fused to the activation domain (AA 1-144) of chicken c-Jun (chicken) [GST: P08515]; assay: GST fusion proteins on GSH-agarose, TPA-activated Jurkat extract; solid-phase kinase assay and eluted-kinase assay
[8] = biological target: GST-cJun(1-79), GST fused to c-Jun AA 1-79 (human) (UniProt P05412); assay: GSTcJun deletion mutants on GSH-agarose, UV-irradiated HeLa extract; solid-phase kinase assay and eluted-kinase assay
[9] = biological target: GSTcJun C-terminal truncation ending at c-Jun a.a. 93 (human) (UniProt P05412); assay: as above
[10] = biological target: GSTcJun(33-223), GST fused to c-Jun AA 33-223 (human) (UniProt P05412); assay: as above
[11] = biological target: GSTcJun(wt), glutathione-S-transferase fused to c-Jun AA 1-223 (human) [GST: P08515]; assay: elution from GSTcJun(wt)-GSH-agarose beads loaded with TPA-stimulated Jurkat extract, eluted kinase assayed on recombinant c-Jun
[12] = biological target: GSTcJun(Ala63/73), GST fused to c-Jun AA 1-223 with Ser 63 and Ser 73 converted to alanines (human) (UniProt P05412); assay: solid-phase kinase assay, extracts of Ha-ras-transformed FR3T3, UV-irradiated HeLa or TPA-stimulated Jurkat cells on GSH-agarose beads
[13] = biological target: GSTcJun(wt), glutathione-S-transferase fused to c-Jun AA 1-223 (human) [GST: P08515]; assay: as above
[14] = biological target: GSTcJun(wt), glutathione-S-transferase fused to c-Jun AA 1-223 (human) [GST: P08515]; assay: GSTcJun(WT)-GSH-agarose pull-down from extracts of K562, U937, Jurkat, HeLa, F9, Ha-ras-transformed FR3T3 and QT6 cells, in-gel kinase assay

Measured: binding

c-Jun N-terminal protein kinase (JNK), 46 kD form, endogenous kinase from cell extracts (from UniProt P45983-2 1-384) (enzyme)
binds: all assays above
